Test results: paper PMC4709127, “Wuho Is a New Member in Maintaining Genome Stability through its Interaction with Flap Endonuclease 1”

Protein sequences, listed by entry. Tags and fused reporters are not part of them.
UniProt P39748: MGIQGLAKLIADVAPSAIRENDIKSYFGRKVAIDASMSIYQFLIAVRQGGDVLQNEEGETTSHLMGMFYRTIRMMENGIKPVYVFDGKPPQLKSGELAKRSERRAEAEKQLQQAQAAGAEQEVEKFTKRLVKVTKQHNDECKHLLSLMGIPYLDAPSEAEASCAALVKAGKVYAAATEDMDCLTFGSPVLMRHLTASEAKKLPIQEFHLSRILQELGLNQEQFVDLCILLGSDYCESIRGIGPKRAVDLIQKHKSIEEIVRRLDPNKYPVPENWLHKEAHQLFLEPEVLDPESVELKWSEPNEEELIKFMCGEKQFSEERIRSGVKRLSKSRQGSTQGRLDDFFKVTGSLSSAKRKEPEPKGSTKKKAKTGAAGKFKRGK

Molecular target: T1, human Wuho protein (hWH) tagged with V5 and hexahistidine epitopes (human) (UniProt P57081)
T1 sequence: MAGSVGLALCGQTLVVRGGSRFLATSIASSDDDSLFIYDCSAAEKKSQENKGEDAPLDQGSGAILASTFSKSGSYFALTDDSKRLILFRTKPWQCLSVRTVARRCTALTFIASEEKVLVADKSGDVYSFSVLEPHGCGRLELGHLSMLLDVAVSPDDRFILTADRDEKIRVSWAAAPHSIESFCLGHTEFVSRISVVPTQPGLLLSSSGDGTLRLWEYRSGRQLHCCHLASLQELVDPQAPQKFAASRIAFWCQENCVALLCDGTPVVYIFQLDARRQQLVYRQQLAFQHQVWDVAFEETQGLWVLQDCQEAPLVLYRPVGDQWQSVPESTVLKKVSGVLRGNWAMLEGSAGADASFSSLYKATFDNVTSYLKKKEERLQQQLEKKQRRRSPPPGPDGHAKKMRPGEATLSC
Experiment: affinity purification with mass spectrometry; nuclear extract of tetracycline-induced Flp-In-293 cells expressing hWH-V5-His6, anti-V5 agarose beads, 4°C overnight, NE buffer (20 mM Hepes pH 7.9, 400 mM NaCl, 0.2% NP-40); gel bands identified by mass spectrometry

- binding: binds
Substance: flap endonuclease 1 (FEN1), endogenous (from UniProt P39748 1-380) (enzyme)

These are yes or no findings as the source states them, for the method shown. Binding seen in cells or lysates may run through a third protein. A yes stands for co-enrichment or nearness to the bait. Other partners may have been found. Sequences can lack the tags named with a protein.
